These results are taken from PubChem BioAssay AID1963822 (ICCB-Longwood Screening Facility, Harvard Medical School, 2024).

Each structure is given as a SMILES string. The list shows a part of the results.

The nature of the test: anaerobic choline-dependent bacterial growth inhibition – minimal medium, absorbance (AID 1963822). To be noted: Gram-negative bacterium anaerobic choline minimal medium, measured here: choline growth z-score, timepoint 1, stronger effect = lower value.
Compound `CN(CCCl)CCCl` returned a z-score of 0.26.
